The assay deals with intersectin1 (ITSN1), brain long form ITSN1L (mouse (endogenous in mouse brain synaptic CCV)) (UniProt Q9Z0R4). As to the kind of experiment: co-IP; CCV coats of canCCV, wt stable CCV and ko stCCV (wt and AP1/σ1B ko mice) solubilised by pH shift 6.4 to 8.0, vesicles removed at 100.000×g, pH set back to 6.4; 5 μg anti-ITSN1 antibody overnight at 4 °C, Protein G sepharose beads, three washes at pH 6.4, elution with non-reducing SDS-PAGE loading buffer, semi-quantitative western blot. (In general: In western blotting, separated proteins are transferred to a membrane and probed.)

Protein sequences, listed by entry. Tags and fused reporters are not part of them.
UniProt Q9Z0R4: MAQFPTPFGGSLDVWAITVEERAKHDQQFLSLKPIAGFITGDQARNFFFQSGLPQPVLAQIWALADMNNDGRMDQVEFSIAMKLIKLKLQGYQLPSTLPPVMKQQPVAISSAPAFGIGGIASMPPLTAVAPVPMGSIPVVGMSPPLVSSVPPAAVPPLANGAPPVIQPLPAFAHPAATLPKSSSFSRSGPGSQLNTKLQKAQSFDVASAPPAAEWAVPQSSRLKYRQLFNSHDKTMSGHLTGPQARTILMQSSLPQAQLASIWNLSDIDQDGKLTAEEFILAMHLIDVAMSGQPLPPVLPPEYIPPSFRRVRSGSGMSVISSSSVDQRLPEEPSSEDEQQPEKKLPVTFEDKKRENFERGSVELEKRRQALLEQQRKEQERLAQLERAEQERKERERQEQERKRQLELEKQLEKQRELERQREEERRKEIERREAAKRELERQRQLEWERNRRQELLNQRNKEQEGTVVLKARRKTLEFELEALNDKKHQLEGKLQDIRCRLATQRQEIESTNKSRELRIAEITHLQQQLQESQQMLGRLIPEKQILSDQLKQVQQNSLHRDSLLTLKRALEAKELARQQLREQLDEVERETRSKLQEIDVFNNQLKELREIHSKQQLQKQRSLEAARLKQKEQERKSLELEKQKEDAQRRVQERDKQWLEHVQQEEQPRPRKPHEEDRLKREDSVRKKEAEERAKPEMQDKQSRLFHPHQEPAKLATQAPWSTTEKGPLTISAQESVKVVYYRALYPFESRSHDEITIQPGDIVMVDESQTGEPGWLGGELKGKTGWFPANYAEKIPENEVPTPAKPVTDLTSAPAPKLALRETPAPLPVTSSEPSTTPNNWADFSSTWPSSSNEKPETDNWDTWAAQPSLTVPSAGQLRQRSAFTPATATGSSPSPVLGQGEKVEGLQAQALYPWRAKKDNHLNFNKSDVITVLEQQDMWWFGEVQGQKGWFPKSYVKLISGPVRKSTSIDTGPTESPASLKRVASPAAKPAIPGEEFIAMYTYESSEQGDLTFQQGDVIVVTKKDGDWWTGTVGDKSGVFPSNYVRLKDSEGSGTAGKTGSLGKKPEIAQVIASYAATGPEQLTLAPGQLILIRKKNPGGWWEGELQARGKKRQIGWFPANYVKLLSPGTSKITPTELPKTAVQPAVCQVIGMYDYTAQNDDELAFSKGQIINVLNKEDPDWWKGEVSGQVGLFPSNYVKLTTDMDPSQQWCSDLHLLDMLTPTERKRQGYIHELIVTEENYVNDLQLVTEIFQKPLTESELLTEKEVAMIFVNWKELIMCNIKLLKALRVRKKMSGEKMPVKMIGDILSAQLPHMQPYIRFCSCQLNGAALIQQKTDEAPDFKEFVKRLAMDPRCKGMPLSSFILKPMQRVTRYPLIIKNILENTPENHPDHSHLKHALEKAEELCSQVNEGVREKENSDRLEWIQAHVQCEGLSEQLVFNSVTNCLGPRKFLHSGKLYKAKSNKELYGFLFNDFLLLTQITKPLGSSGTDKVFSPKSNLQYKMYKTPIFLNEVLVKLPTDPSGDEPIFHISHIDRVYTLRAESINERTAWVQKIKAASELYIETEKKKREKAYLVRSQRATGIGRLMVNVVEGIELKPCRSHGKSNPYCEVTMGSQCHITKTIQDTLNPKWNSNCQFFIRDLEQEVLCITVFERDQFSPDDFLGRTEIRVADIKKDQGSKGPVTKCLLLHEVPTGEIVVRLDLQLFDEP

These are yes or no findings as the source states them, for the method shown. Binding seen in cells or lysates may run through a third protein. A result given as binding can be weak or reduced; the word gives no strength.

synaptojanin1 (from UniProt Q8CHC4-2): the binding result is reported as “binds”.

For the origin of these results see paper PMC8044098.
